At least one structure is not confirmed: it was looked up by name or label, or the drawing left a doubt.
Test system: hSMG1 mRNA
Assay: Counter-screen: block of ouabain-induced hSMG1 overexpression in DLD-1 cells
Format: cell-based, human
Settings: library screened in the presence of ouabain (10 μM)
Experimental: Drug Library Screen and hSMG1 message quantitation. The QuantiGene® Explore kit (Panomics, Inc.) was used to furnish a direct quantitation of mRNA in a 96 well format. The “housekeeper gene” […] was selected as an intracellular control. Specific oligonucleotide probes for hSMG1, including capture extenders (CE), label extenders (LE) and blocking probes (BL) were designed with the Panomics ProbeDesigner™ software and synthesized. Prior to drug exposure, HeLa cells were incubated for 24 hr in 150 μL Dulbecco's modified Eagle Medium (DMEM) with 10% fetal bovine serum (FBS) and DLD-1 cells were incubated for 24 hr in 150 μL MEM with 1 mM MEM nonessential amino acids, 1 mM sodium pyrurate, 0.15% sodium bicarbonate, and 10% FBS. Cells were then exposed to various concentrations of the drugs for 24 hr and then lysed via incubation in 75 μL lysis buffer (QuantiGene® Explore kit) at 53° C. for 1 hr. Capture of hSMG1 and actin mRNA was conducted according to the manufacturers instructions and quantification performed using a microplate luminometer.

Q: For `COC(=O)C1=C(C)NC(C)=C(C(=O)OC)C1c1ccccc1[N+](=O)[O-]` [Nifedipine], which “effect on ouabain-induced hSMG1 expression” value is on record?
A: suppress ouabain-induced hSMG1 expression
